Reference: article PMC7897482
No constants are given. Whether binding was seen depends on the method and setting. Binding seen in cells or lysates may run through a third protein. Some entries that bind do so weakly or less than the wild type. Tags and fused reporters may be left off the sequences shown.

Chains of the proteins cited; added tags and fusions are not shown.
UniProt Q9VH07: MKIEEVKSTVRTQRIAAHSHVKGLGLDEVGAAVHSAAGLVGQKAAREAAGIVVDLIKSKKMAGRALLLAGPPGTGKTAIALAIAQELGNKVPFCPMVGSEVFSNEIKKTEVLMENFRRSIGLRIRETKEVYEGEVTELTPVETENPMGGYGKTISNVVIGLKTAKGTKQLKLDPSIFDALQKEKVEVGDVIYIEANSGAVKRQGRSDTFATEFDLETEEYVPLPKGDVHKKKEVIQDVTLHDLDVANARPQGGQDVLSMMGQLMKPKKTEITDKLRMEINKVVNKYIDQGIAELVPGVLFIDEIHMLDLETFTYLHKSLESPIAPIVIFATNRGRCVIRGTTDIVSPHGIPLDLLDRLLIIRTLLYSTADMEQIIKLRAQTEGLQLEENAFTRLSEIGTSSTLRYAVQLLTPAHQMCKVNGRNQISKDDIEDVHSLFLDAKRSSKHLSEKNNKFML

Experiments:
[1] = target: T1, SmD3::HA (transgenic UAS-SmD3::3xHA) (Drosophila melanogaster) (UniProt O44437); test: co-IP; SmD3::HA precipitated with anti-HA antibody-coupled magnetic beads from wing imaginal disc lysates; endogenous Prp8 and Ecd detected by western blot; compared: ecd RNAi, prp8 RNAi, Prp8 overexpression, RNase A treatment of the lysate; control: discs expressing RFP only
T1 sequence: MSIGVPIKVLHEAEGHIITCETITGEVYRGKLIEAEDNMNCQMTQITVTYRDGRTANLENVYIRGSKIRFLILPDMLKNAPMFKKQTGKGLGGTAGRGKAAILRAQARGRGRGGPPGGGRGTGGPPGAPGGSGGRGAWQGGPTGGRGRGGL

[2] = target: T2, Myc::Ecd^wt (Ecdysoneless, wild type) (Drosophila melanogaster) (UniProt Q9W032); test: co-IP; lysates of transfected Drosophila S2 cells; Myc-tagged Ecd proteins served as baits (anti-Myc magnetic beads), overnight at 4°C, five washes in lysis buffer with 150-250 mM NaCl; western blot
T2 sequence: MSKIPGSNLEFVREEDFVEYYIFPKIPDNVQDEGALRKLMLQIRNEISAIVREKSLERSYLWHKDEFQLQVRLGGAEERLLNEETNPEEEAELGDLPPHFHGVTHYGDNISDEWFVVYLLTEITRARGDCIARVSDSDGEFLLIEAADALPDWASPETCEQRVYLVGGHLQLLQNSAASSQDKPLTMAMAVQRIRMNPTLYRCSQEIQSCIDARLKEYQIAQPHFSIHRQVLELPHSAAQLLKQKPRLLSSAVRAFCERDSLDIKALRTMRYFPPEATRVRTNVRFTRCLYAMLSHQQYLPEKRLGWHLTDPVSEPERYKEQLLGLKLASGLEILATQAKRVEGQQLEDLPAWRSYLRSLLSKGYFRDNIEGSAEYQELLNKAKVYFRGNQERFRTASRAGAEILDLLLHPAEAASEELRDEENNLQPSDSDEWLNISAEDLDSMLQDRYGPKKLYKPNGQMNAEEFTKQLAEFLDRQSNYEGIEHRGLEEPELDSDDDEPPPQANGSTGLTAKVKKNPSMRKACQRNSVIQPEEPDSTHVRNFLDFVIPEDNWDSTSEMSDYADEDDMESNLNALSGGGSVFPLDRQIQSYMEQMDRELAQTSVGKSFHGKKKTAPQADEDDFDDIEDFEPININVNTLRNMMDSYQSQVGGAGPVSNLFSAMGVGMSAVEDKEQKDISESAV

[3] = target: T3, Myc::Ecd^Δ34 (Drosophila melanogaster) (UniProt Q9W032); test: as above
T3 sequence: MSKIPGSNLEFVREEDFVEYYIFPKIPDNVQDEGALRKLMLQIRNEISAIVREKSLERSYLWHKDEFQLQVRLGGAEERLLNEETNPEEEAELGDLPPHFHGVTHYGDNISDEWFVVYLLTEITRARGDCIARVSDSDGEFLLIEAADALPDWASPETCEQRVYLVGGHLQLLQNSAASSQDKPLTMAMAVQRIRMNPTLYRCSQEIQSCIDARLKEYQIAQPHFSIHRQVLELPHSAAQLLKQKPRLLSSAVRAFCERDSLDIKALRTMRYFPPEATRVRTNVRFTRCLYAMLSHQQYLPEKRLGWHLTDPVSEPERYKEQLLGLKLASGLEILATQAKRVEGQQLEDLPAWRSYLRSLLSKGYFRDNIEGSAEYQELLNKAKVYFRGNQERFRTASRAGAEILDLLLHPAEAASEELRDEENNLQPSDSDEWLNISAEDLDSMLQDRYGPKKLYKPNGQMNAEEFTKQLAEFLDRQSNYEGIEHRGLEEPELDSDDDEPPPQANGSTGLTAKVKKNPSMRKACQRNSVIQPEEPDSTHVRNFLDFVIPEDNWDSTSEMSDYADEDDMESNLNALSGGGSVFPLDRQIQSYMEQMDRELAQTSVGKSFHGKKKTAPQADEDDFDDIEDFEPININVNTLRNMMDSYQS

Row | Substance | binding [1] | binding [2] | binding [3]
1 | endogenous Prp8 (wing imaginal discs) (from UniProt A1Z8U0 1-2396) | binds |  | 
2 | tagged Pontin (RUVBL1) (from UniProt Q9VH07 1-456) |  | binds | binds
